In paper PMC13015889 one finds binding data, which are given here for 3 molecules.

No constants are given. Whether binding was seen depends on the method and setting. Binding seen in cells or lysates may run through a third protein. Binding calls can cover weak binding; strength is not graded here. For some assays here: Where a sequence is shown, tags or fusion partners need not be part of it.

Assay [1] addresses PICALM4A-red fluorescent protein (RFP) (Arabidopsis thaliana). The assay is described as follows: co-IP; 6-day-old transgenic Arabidopsis seedlings expressing ERECTA-FLAG and PICALM4A-RFP under native promoters; α-RFP immunoprecipitation (RFP-Trap magnetic agarose), 4°C 1 hour, 150 mM NaCl, 1% Triton X-100.
The target of assay [2] is PICALM4A-GFP (pYBA-1132) (Arabidopsis thaliana). The assay is described as follows: co-IP; transient expression in Arabidopsis protoplasts; RFP-Trap or GFP-Trap magnetic agarose as the methods say, 4°C 1 hour, 150 mM NaCl, 1% Triton X-100.
The target in assay [3] is PICALM4B-GFP (pYBA-1132) (Arabidopsis thaliana). The assay is described as above.
In assay [4] the target is PICALM3-GFP (pYBA-1132) (Arabidopsis thaliana). The assay is described as above.
Assay [5] deals with PICALM4A (co-IP with ERL1) (Arabidopsis thaliana). The assay is described as follows: co-IP; ERL1 with PICALM4A, in vivo (fig. S7B); constructs and direction not told in the text shown.

B1: ERECTA-FLAG (receptor, UniProt Q42371 25-976)
chain: EEGATLLEIKKSFKDVNNVLYDWTTSPSSDYCVWRGVSCENVTFNVVALNLSDLNLDGEISPAIGDLKSLLSIDLRGNRLSGQIPDEIGDCSSLQNLDLSFNELSGDIPFSISKLKQLEQLILKNNQLIGPIPSTLSQIPNLKILDLAQNKLSGEIPRLIYWNEVLQYLGLRGNNLVGNISPDLCQLTGLWYFDVRNNSLTGSIPETIGNCTAFQVLDLSYNQLTGEIPFDIGFLQVATLSLQGNQLSGKIPSVIGLMQALAVLDLSGNLLSGSIPPILGNLTFTEKLYLHSNKLTGSIPPELGNMSKLHYLELNDNHLTGHIPPELGKLTDLFDLNVANNDLEGPIPDHLSSCTNLNSLNVHGNKFSGTIPRAFQKLESMTYLNLSSNNIKGPIPVELSRIGNLDTLDLSNNKINGIIPSSLGDLEHLLKMNLSRNHITGVVPGDFGNLRSIMEIDLSNNDISGPIPEELNQLQNIILLRLENNNLTGNVGSLANCLSLTVLNVSHNNLVGDIPKNNNFSRFSPDSFIGNPGLCGSWLNSPCHDSRRTVRVSISRAAILGIAIGGLVILLMVLIAACRPHNPPPFLDGSLDKPVTYSTPKLVILHMNMALHVYEDIMRMTENLSEKYIIGHGASSTVYKCVLKNCKPVAIKRLYSHNPQSMKQFETELEMLSSIKHRNLVSLQAYSLSHLGSLLFYDYLENGSLWDLLHGPTKKKTLDWDTRLKIAYGAAQGLAYLHHDCSPRIIHRDVKSSNILLDKDLEARLTDFGIAKSLCVSKSHTSTYVMGTIGYIDPEYARTSRLTEKSDVYSYGIVLLELLTRRKAVDDESNLHHLIMSKTGNNEVMEMADPDITSTCKDLGVVKKVFQLALLCTKRQPNDRPTMHQVTRVLGSFMLSEQPPAATDTSATLAGSCYVDEYANLKTPHSVNCSSMSASDAQLFLRFGQVISQNSE
In the case of B1, the binding entry in assay [1] was “binds”.

B2: ERECTA-2xHA (pHBT-2xHA) (receptor, UniProt Q42371 25-976)
chain: B1 chain
For B2, the binding result in assay [2], in assay [3] and in assay [4] was “binds” each time.

B3: ERECTA-LIKE1 (ERL1) (receptor, UniProt C0LGW6 26-966)
chain: MNNEGKALMAIKGSFSNLVNMLLDWDDVHNSDLCSWRGVFCDNVSYSVVSLNLSSLNLGGEISPAIGDLRNLQSIDLQGNKLAGQIPDEIGNCASLVYLDLSENLLYGDIPFSISKLKQLETLNLKNNQLTGPVPATLTQIPNLKRLDLAGNHLTGEISRLLYWNEVLQYLGLRGNMLTGTLSSDMCQLTGLWYFDVRGNNLTGTIPESIGNCTSFQILDISYNQITGEIPYNIGFLQVATLSLQGNRLTGRIPEVIGLMQALAVLDLSDNELVGPIPPILGNLSFTGKLYLHGNMLTGPIPSELGNMSRLSYLQLNDNKLVGTIPPELGKLEQLFELNLANNRLVGPIPSNISSCAALNQFNVHGNLLSGSIPLAFRNLGSLTYLNLSSNNFKGKIPVELGHIINLDKLDLSGNNFSGSIPLTLGDLEHLLILNLSRNHLSGQLPAEFGNLRSIQMIDVSFNLLSGVIPTELGQLQNLNSLILNNNKLHGKIPDQLTNCFTLVNLNVSFNNLSGIVPPMKNFSRFAPASFVGNPYLCGNWVGSICGPLPKSRVFSRGALICIVLGVITLLCMIFLAVYKSMQQKKILQGSSKQAEGLTKLVILHMDMAIHTFDDIMRVTENLNEKFIIGYGASSTVYKCALKSSRPIAIKRLYNQYPHNLREFETELETIGSIRHRNIVSLHGYALSPTGNLLFYDYMENGSLWDLLHGSLKKVKLDWETRLKIAVGAAQGLAYLHHDCTPRIIHRDIKSSNILLDENFEAHLSDFGIAKSIPASKTHASTYVLGTIGYIDPEYARTSRINEKSDIYSFGIVLLELLTGKKAVDNEANLHQLILSKADDNTVMEAVDPEVTVTCMDLGHIRKTFQLALLCTKRNPLERPTMLEVSRVLLSLVPSLQVAKKLPSLDHSTKKLQQENEVRNPDAEASQWFVQFREVISKSSI
For the molecule B3, the binding result in assay [5] is recorded as “binds”.
